## Percent effect of library compounds

Amino acid sequences for entries named in this document (tags omitted). Residues count along the entry.
UniProt Q8IDJ8, 1-583: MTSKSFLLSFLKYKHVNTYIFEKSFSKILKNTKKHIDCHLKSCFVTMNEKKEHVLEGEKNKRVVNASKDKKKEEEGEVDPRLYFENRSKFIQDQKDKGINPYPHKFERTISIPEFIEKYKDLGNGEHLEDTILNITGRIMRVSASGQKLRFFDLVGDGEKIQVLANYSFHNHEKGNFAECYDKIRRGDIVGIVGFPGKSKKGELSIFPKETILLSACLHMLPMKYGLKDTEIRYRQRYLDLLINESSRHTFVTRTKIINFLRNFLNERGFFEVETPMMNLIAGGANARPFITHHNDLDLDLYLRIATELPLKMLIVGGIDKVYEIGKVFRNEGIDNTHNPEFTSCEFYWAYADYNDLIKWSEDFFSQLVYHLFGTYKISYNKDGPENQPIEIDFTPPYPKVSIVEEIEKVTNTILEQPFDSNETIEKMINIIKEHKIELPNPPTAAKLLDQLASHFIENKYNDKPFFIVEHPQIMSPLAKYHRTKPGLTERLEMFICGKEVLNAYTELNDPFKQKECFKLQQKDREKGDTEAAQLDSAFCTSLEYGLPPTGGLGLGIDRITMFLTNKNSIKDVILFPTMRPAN

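Enzyme assay of the cytosolic lysyl-tRNA synthetase in 384-well plates, read by luminescence. Target: Lysine-tRNA ligase, Plasmodium falciparum 3D7 (UniProt Q8IDJ8). Compounds at 30 µM. Higher reads as stronger inhibition, judged from the few compounds that gave an IC50. Of about 69,000 compounds tested this way, about 49 (0.071%) reached 50% or more in at least one test.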

Values are the deposited “Percent Effect”, in %.
The record does not define 0% and 100%; most values in the screen are far below 50% and negative numbers occur (in some assays of this library far below -100).
The compounds are a random part of those screened.

* COc1ccccc1C(O)CNC(=O)Nc1ncccc1C (stereo not given) : 0.2963%
* CCCc1ccc(OCCNCc2ccco2)c(OC)c1 : 1.42%
* CC(C)(O)CCc1cccc(C(=O)N2Cc3cnn(CCO)c3C2)c1 : -0.5331%
* CC(c1ccc(Cl)cc1)N1CCN(CCNS(C)(=O)=O)CC1 (stereo not given) : 4.14%
* Cc1cnn(C2(C(=O)O)CCN(c3ccncc3F)CC2)c1 : 4.556%
* COc1ccccc1C1=NOC(CC2(C(=O)O)CCOCC2)C1 (stereo not given) : -3.034%
* CC(c1cncs1)N(C)Cc1ccc(CCC(C)(C)O)cc1 (stereo not given) : 4.836%
* CN(CC1CC1)C(=O)Cc1csc(-c2ncccn2)n1 : -0.8252%
* CCCOc1cc(CNC(=O)Nc2ccccn2)ccn1 : -6.128%
* Cc1cc(N2CCC3(CCCN(CCO)C3=O)C2)nc2cc(Cl)ccc12 (stereo not given) : 1.387%
* O=c1ccc2c(n1CC1CC1)CCC(NS(=O)(=O)C1CC1)C2 (stereo not given) : -2.929%
* O=C(c1cccnc1)N1C[C@@H]2OCCN(CCN3CCCC3)[C@@H]2C1 : 7.747%
* COc1ccc(C(O)C(=O)N2CCC(c3nccn3C(C)C)CC2)cc1 (stereo not given) : 1.155%
* CNC(=O)N1CC[C@H]2N(C)CC[C@@]2(C(=O)Nc2ccccc2)CC1 : 3.866%
* Cc1ncc(CN2CCCC(c3cc(C(F)(F)F)[nH]n3)C2)s1 (stereo not given) : 1.294%
* COc1cccc(CC(=O)N2CC[C@@H]3NC(=O)CC[C@@H]32)c1 : -0.7467%
* CNC(=O)COC1COC2(CCN(c3ccc(C)nn3)CC2)C1 (stereo not given) : 0.768%
* Fc1cnc(N2CCCC3(CCN(Cc4ccco4)C3)C2)nc1 (stereo not given) : 6.931%
* c1cncc(COCc2nnc3n2CCN(Cc2ccco2)C3)c1 : 4.86%
* Cc1ccc(C2(O)CCN(C(=O)Cn3cc(C)c(=O)[nH]c3=O)CC2)nc1 : 2.352%
* c1cc(CN2CCC(n3cc(CN4CCCC4)nn3)CC2)cs1 : -2.41%
* CCN(CC)S(=O)(=O)NC1CCCc2nc(-c3ccccc3)ncc21 (stereo not given) : 3.65%
* CCN(C)C(=O)c1ccc2c(c1)C(c1nc[nH]n1)CN2S(C)(=O)=O (stereo not given) : 3.888%
* CN1C[C@H]2CN(Cc3cccc(OC(F)(F)F)c3)CCN2C1=O : -2.328%
* CS(=O)(=O)CCC(=O)N1CCC2(CCCN(C3CCOCC3)C2=O)C1 (stereo not given) : 8.907%
* CCN(CC)CCc1nc2c([nH]1)CC(c1ccc(Cl)cc1)CNC2=O (stereo not given) : 3.512%
* CN(Cc1cccs1)C(=O)Cn1cc(NC(=O)C(C)(C)C)cn1 : 6.143%
* Cn1ccnc1COc1ccc(CN2CCC(C(N)=O)CC2)cc1 : 1.516%
* Cc1ccc(C#N)c(N2CCC(c3nccn3Cc3cscn3)CC2)n1 : 0.267%
* CCCc1nc(NC2(COC)CCCC2)c2cnn(C)c2n1 : 0.9208%
* CCCC(C#N)NC(=O)c1sccc1CC (stereo not given) : -1.842%
* CC(NC(=O)N1CCc2ccccc21)c1nncn1C (stereo not given) : 1.022%
* CCC(CNC1CCN(C(=O)N(C)C)CC1)Oc1ccccc1C (stereo not given) : -1.28%
* COc1ccc(C(N)=O)cc1NCc1ncc(-c2cccs2)o1 : 1.687%
* Cc1ccc(NC(=O)Cn2cc(I)cn2)cc1 : 0.3166%
* Cc1cc(C(F)(F)F)n2nc(C3CCN(S(=O)(=O)N(C)C)CC3)cc2n1 : -0.8252%
* CCOC(=O)N1CCN(c2nc(NCCO)c3ccccc3n2)CC1 : 4.324%
* CCC(CN1CCOCC1)n1cncc1-c1ccc2c(c1)CCN2CC (stereo not given) : 0.3576%
* CC(C)CN1CCOC[C@H](Oc2ccc(S(C)(=O)=O)cc2)C1 : -2.153%
* Fc1cnc(N2C[C@@H]3COC[C@]3(COc3ccccn3)C2)nc1 : -1.769%
* Cn1cnc2c1C(COCC1CCOCC1)CN(C1CCOCC1)C2 (stereo not given) : -2.896%
* O=C(CN1CSCC1=O)NCC1CCN(c2ccccc2)C1 (stereo not given) : -0.1018%
* Cc1ccc2c(c1)C(NC(=O)N(C)C)CC21CCN(C(C)C)CC1 (stereo not given) : 0.4482%
* Cc1nc(CN2CCCC(NCc3cnn(C)c3)C2)no1 (stereo not given) : -0.5995%
* CC(C)=CCN(C)C1CCCN(Cc2noc(C)n2)C1 (stereo not given) : 3.612%

Source: ChEMBL document CHEMBL3988442, “University of Dundee, Small-Polar-MMV Screening Library” (2021).